Consider one substance from article PMC3102665, “A Sir2-Like Protein Participates in Mycobacterial NHEJ” (PLoS ONE, 2011).

The test deals with T1, GST-MtuSir2 fusion protein (M. tuberculosis) (UniProt P9WGG3).
T1 sequence: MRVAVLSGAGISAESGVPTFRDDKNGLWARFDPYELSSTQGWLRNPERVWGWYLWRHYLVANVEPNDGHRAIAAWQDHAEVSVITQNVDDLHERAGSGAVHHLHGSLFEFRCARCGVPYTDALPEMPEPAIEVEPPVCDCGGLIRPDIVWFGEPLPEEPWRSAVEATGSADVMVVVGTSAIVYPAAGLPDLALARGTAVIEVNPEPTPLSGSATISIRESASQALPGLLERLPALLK
Nature of the test: pull-down; both purified.

Results are given in words; binding and its absence hold for the method and conditions named. Binding can be weak; no strength is given. Sequences can lack the tags named with a protein.

As for His-MtuKu protein (M. tuberculosis), the binding result is “binds”.
